Article PMC9276969
The exact form of at least one protein or probe is not confirmed. Where a protein sequence is shown, tags need not be part of it.

Target: T1, LvIRF (Litopenaeus vannamei) (UniProt A0A0R6M5F1)
T1 sequence (looked up): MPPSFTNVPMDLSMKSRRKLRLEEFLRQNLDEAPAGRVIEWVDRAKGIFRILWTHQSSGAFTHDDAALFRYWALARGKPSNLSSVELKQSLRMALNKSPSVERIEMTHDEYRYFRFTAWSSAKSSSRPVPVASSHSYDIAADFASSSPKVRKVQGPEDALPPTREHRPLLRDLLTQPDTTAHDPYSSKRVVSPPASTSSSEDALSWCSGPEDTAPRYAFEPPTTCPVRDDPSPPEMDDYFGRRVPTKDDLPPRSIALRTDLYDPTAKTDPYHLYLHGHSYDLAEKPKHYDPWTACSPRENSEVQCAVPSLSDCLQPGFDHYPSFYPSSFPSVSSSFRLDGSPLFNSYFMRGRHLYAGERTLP
Experiment: EMSA
Conditions: 10 ug protein, 20 fmol probe, shift gradually eliminated by 200x and 400x unlabeled probe, LightShift Chemiluminescent EMSA Kit, 5% native PAGE, pH and temperature not stated, recombinant protein, residues 1-362, label: 5' biotin on printed strand

## ATAATGGTGATGATAGGTTGCTGGGGGAAAGGGGAAGGATCAAGGAGCAAGCGGAAGTGT (double strand) [PTPN6 probe]
  binding result: binds
